From patent US20160009772A1, “CELL PENETRATING PEPTIDES WHICH BIND IRF5” (priority 2012, published 2016)
These are yes or no findings as the source states them, for the method shown. Some results given as binding are weak or reduced against the parent protein; the word gives no strength.

Chains of the proteins cited; added tags and fusions are not shown. Lines headed by an entry give the natural chain unless they say otherwise; changes in a name come on top. A line that says so, or that is headed by a name, gives the form on record, which may keep a tag or linker.
IRF5(222-467, S430D), S430D phosphomimetic construct of IRF5 (222-467) (Q13568, form named): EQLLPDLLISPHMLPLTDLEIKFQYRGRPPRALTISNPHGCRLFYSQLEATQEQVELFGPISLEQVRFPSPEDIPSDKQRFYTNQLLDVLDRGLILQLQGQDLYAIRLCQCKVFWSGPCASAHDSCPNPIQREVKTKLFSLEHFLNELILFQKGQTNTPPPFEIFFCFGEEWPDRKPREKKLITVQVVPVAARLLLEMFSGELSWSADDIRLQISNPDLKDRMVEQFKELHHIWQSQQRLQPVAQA

Biological target: IRF5(222-467, S430D), S430D phosphomimetic construct of IRF5 (222-467) (human) (UniProt Q13568)
Test: TR-FRET dimer assay, 200 nM biotin tag IRF5 with increasing His tag IRF5 (FIG. 1B); Kd not given

IRF5(222-467, S430D), S430D phosphomimetic construct of IRF5 (222-467) (from UniProt Q13568 222-467)
binding: binds
